The text below walks through data of the supplement of paper PMC4635364.

SMILES strings stand for the structures. Structures can show the parent of a compound that is named as a salt. This is one part of the list. Single values are uncertain here, since repeats match poorly.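 Cells: ReNCell VM human fetal ventral-midbrain neural progenitors, differentiated mitogen-free. Blinded raters compared doublecortin-stained (early neurons) or tyrosine hydroxylase-stained (dopaminergic neurons) images with untreated wells, where 0 means no change. After repeats and both raters were averaged, compounds scoring 2 or above became hits for retesting.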

Test [1] relates to ReNCell VM. In words: neuronal differentiation score (DCX+ cell fraction vs untreated, manual image score) (score (-3 to 3)); higher = more neuronal differentiation. As to conditions: 2 uM, 2 weeks.
Test [2] concerns ReNCell VM. Briefly: dopaminergic neuron differentiation score (TH+ cell fraction vs untreated, manual image score) (score (0 to 3)); higher = more TH+ dopaminergic neuron differentiation. The note with it: 2 uM, 4 weeks, BDNF 10 ng/ml + GDNF 10 ng/ml.

As for `C[C@]12CCC(=O)C=C1CC[C@H]1[C@@H]3CC[C@](O)(C(=O)CO)[C@@]3(C)C[C@@H]3OC312` (stereo in doubt) [17,21-dihydroxy-9,11-epoxy-pregn-4-ene-3,20-dione], the neuronal differentiation score in the test on ReNCell VM [1] (library: Natural) was inactive: 1. In the test on ReNCell VM [2] (library: Natural), the “dopaminergic neuron differentiation score” value was inactive: 0.

As for `CC(C)(C)C(=O)OCOC(=O)[C@@H]1N2C(=O)[C@@H](/N=C/N3CCCCCC3)[C@H]2SC1(C)C` [Pivmecillinam hydrochloride], the neuronal differentiation score in the test on ReNCell VM [1] (library: Prestwick) was inactive: 0. Also, the “dopaminergic neuron differentiation score” value in the test on ReNCell VM [2] (library: Prestwick) is inactive: 0.

For the molecule `CC1(C)O[C@@H]2C[C@H]3[C@@H]4C[C@H](F)C5=CC(=O)CC[C@]5(C)[C@H]4[C@@H](O)C[C@]3(C)[C@]2(C(=O)CO)O1`, the neuronal differentiation score in the test on ReNCell VM [1] (library: Spectrum) was inactive: 0. The “dopaminergic neuron differentiation score” value in the test on ReNCell VM [2] (library: Spectrum) was inactive: 1.

On to `O=c1[nH]ccc2c(O)cccc12` [1,5-Isoquinolinediol], for which, in the test on ReNCell VM [1] (library: LOPAC), the neuronal differentiation score is inactive: 0. For the same molecule, the “dopaminergic neuron differentiation score” value in the test on ReNCell VM [2] (library: LOPAC) was inactive: 0.

As to `CC(=O)O[C@@H]1CC[C@@]2(C)C(C[C@@H](OC(C)=O)[C@@]3(C)C4=CC(=O)O[C@@H](c5ccoc5)[C@]4(C)CCC23)C1(C)C` (stereo partly drawn) [3alpha-ACETOXYDIHYDRODEOXYGEDUNIN], the neuronal differentiation score with ReNCell VM [1] (library: Spectrum) is inactive: 0. Also, in the test with ReNCell VM [2] (library: Spectrum), the “dopaminergic neuron differentiation score” value was inactive: 0.

Turning to `COc1nccc(-c2c(-c3ccc(F)cc3)ncn2C2CCC(O)CC2)n1` (stereo unspecified), the neuronal differentiation score with ReNCell VM [1] (library: Tocriscreen) was active: 3. Further, in the test with ReNCell VM [2] (library: Tocriscreen), the “dopaminergic neuron differentiation score” value is inactive: 0.

Consider `CCCCOC(=O)c1ccc(O)cc1`, for which the neuronal differentiation score in the test with ReNCell VM [1] (library: Spectrum) is inactive: 0. Further, in the test on ReNCell VM [2] (library: Spectrum), the “dopaminergic neuron differentiation score” value was inactive: 0.

For the molecule `CCN(CC)CCOC(=O)C(c1ccccc1)C1CCCCC1` (stereo unspecified) [Drofenine hydrochloride], in the test on ReNCell VM [1] (library: Prestwick), the neuronal differentiation score is inactive: 0. The “dopaminergic neuron differentiation score” value in the test on ReNCell VM [2] (library: Prestwick) was inactive: 1.

On to `Nc1cc(C(Cl)=C(Cl)Cl)c(S(N)(=O)=O)cc1S(N)(=O)=O` [Clorsulon], for which the neuronal differentiation score with ReNCell VM [1] (library: Prestwick) is inactive: 0. In addition, the “dopaminergic neuron differentiation score” value in the test on ReNCell VM [2] (library: Prestwick) is inactive: 0.

For `COc1ccc2c(c1OC)C(=O)O[C@@H]2[C@H]1c2c(cc3c(c2OC)OCO3)CCN1C` [Noscapine hydrochloride], in the test on ReNCell VM [1] (library: Tocriscreen), the neuronal differentiation score is inactive: 0. Further, the “dopaminergic neuron differentiation score” value with ReNCell VM [2] (library: Tocriscreen) was inactive: 0.

Take `CO/N=C(\C(=O)N[C@@H]1C(=O)N2C(C(=O)O)=C(C[N+]3(C)CCCC3)CS[C@H]12)c1csc(N)n1` [Cefepime hydrochloride]: the neuronal differentiation score in the test on ReNCell VM [1] (library: Prestwick) is inactive: 0. In addition, the “dopaminergic neuron differentiation score” value in the test with ReNCell VM [2] (library: Prestwick) is inactive: 0.

In the case of `CC(C)Cn1c(=O)n(C)c(=O)c2[nH]cnc21`, the neuronal differentiation score in the test on ReNCell VM [1] (library: Spectrum) was inactive: 0. In addition, the “dopaminergic neuron differentiation score” value with ReNCell VM [2] (library: Spectrum) is inactive: 0.

Turning to `CCOC(=O)[C@H](CCc1ccccc1)N[C@H]1CCc2ccccc2N(CC(=O)O)C1=O`, the neuronal differentiation score in the test with ReNCell VM [1] (library: Spectrum) was inactive: 0. The “dopaminergic neuron differentiation score” value in the test with ReNCell VM [2] (library: Spectrum) is inactive: 0.

In the case of `Nc1ncnc2nc(-c3ccc(N4CCOCC4)nc3)cc(-c3cccc(Br)c3)c12` [ABT 702 dihydrochloride], in the test with ReNCell VM [1] (library: Tocriscreen), the neuronal differentiation score was inactive: 0. For the same molecule, the “dopaminergic neuron differentiation score” value in the test with ReNCell VM [2] (library: Tocriscreen) is inactive: 0.

Regarding `CC=CC(=O)N(CC)c1ccccc1C` [Crotamiton], the neuronal differentiation score with ReNCell VM [1] (library: Prestwick) was inactive: 0. For the same molecule, the “dopaminergic neuron differentiation score” value in the test on ReNCell VM [2] (library: Prestwick) is inactive: 0.

`CC12CCC(CC1=O)C2(C)C` (stereo unspecified): the neuronal differentiation score in the test on ReNCell VM [1] (library: Spectrum) is inactive: 0. Moreover, the “dopaminergic neuron differentiation score” value in the test on ReNCell VM [2] (library: Spectrum) was inactive: 0.

On to `CN[C@@H]1[C@@H](O)[C@@H](O[C@@H]2[C@@H](O)[C@H](O[C@H]3OC(CN)=CC[C@H]3N)[C@@H](N)C[C@H]2N)OC[C@]1(C)O`, for which the neuronal differentiation score in the test with ReNCell VM [1] (library: Spectrum) is inactive: 0. For the same molecule, the “dopaminergic neuron differentiation score” value in the test on ReNCell VM [2] (library: Spectrum) is inactive: 0.

As for `CC(C)(S)[C@@H](N)C(=O)O` [Penicillamine], the neuronal differentiation score in the test on ReNCell VM [1] (library: Prestwick) was inactive: 0. Moreover, the “dopaminergic neuron differentiation score” value with ReNCell VM [2] (library: Prestwick) was inactive: 0.

For `CCOC(=O)C1=C[C@]2(CC)CCCN3CCc4c(n1c1ccccc41)[C@@H]32`, the neuronal differentiation score in the test on ReNCell VM [1] (library: Spectrum) was inactive: 0. For the same molecule, the “dopaminergic neuron differentiation score” value with ReNCell VM [2] (library: Spectrum) is inactive: 0.

In the case of `Clc1ccc(C(Cn2ccnc2)OCc2ccsc2Cl)c(Cl)c1` (stereo unspecified), in the test on ReNCell VM [1] (library: Spectrum), the neuronal differentiation score was inactive: 0. Moreover, the “dopaminergic neuron differentiation score” value in the test on ReNCell VM [2] (library: Spectrum) was inactive: 0.

Take `CC1(C)Oc2ccc(C#N)cc2[C@@H](N2CCCC2=O)[C@@H]1O` [Levcromakalim]: the neuronal differentiation score in the test with ReNCell VM [1] (library: Tocriscreen) is inactive: 0. For the same molecule, the “dopaminergic neuron differentiation score” value in the test on ReNCell VM [2] (library: Tocriscreen) was inactive: 0.

For `OCCN1C[C@H](O)[C@@H](O)[C@H](O)[C@H]1CO` [Miglitol], the neuronal differentiation score in the test on ReNCell VM [1] (library: Prestwick) is inactive: 0. Besides, the “dopaminergic neuron differentiation score” value in the test on ReNCell VM [2] (library: Prestwick) was inactive: 0.

On to `Cc1c(C(=O)NN2CCCCC2)nn(-c2ccc(Cl)cc2Cl)c1-c1ccc(I)cc1`, for which, in the test on ReNCell VM [1] (library: Tocriscreen), the neuronal differentiation score is inactive: 0. For the same molecule, in the test on ReNCell VM [2] (library: Tocriscreen), the “dopaminergic neuron differentiation score” value was inactive: 0.

In the case of `CCCCCCCC/C=C\CCCCCCCC(N)=O` [Oleamide], in the test on ReNCell VM [1] (library: Tocriscreen), the neuronal differentiation score was inactive: 0. For the same molecule, the “dopaminergic neuron differentiation score” value in the test on ReNCell VM [2] (library: Tocriscreen) was inactive: 0.

As for `CCCCCOC(=O)Nc1nc(=O)n([C@@H]2O[C@H](C)[C@@H](O)[C@H]2O)cc1F`, in the test with ReNCell VM [1] (library: Spectrum), the neuronal differentiation score is inactive: 0. The “dopaminergic neuron differentiation score” value in the test with ReNCell VM [2] (library: Spectrum) is inactive: 0.

`COc1cc(CNC(=O)CCCCCCC(C)C)ccc1O` [Dihydrocapsaicin]: in the test on ReNCell VM [1] (library: LOPAC), the neuronal differentiation score was inactive: 0. The “dopaminergic neuron differentiation score” value in the test on ReNCell VM [2] (library: LOPAC) is inactive: 0.

As to `COc1cccc(-c2cc(=O)c3cc(OC)ccc3o2)c1`, the neuronal differentiation score in the test on ReNCell VM [1] (library: Spectrum) was inactive: 0. Further, in the test on ReNCell VM [2] (library: Spectrum), the “dopaminergic neuron differentiation score” value was inactive: 0.

Turning to `c1ccc2cc(C3=NCCN3)ncc2c1` [BU 226 hydrochloride], the neuronal differentiation score in the test on ReNCell VM [1] (library: Tocriscreen) was inactive: 0. Also, in the test with ReNCell VM [2] (library: Tocriscreen), the “dopaminergic neuron differentiation score” value was inactive: 0.

As to `CC1(C(=O)O)NCCc2cc(O)c(O)cc21` (stereo unspecified) [Salsolinol-1-carboxylic acid], the neuronal differentiation score in the test with ReNCell VM [1] (library: Tocriscreen) was inactive: 0. For the same molecule, the “dopaminergic neuron differentiation score” value with ReNCell VM [2] (library: Tocriscreen) was inactive: 1.

For `N=C(N)NCCN1CCCCCCC1` [Guanethidine sulfate], the neuronal differentiation score in the test with ReNCell VM [1] (library: Prestwick) was inactive: 0. The “dopaminergic neuron differentiation score” value in the test on ReNCell VM [2] (library: Prestwick) is inactive: 0.

Consider `Cc1cccc(N(C)C(=S)Oc2ccc3ccccc3c2)c1`, for which the neuronal differentiation score in the test with ReNCell VM [1] (library: Spectrum) is inactive: 0. Besides, the “dopaminergic neuron differentiation score” value in the test on ReNCell VM [2] (library: Spectrum) is inactive: 0.

For `CSc1ccc2c(c1)C(N1CCN(C)CC1)Cc1ccccc1S2` (stereo unspecified) [Methiothepin mesylate], the neuronal differentiation score in the test with ReNCell VM [1] (library: LOPAC) is inactive: 0. The “dopaminergic neuron differentiation score” value in the test on ReNCell VM [2] (library: LOPAC) is inactive: 0.

With `CCCCc1ccc2[nH]c(NC(=O)OC)nc2c1` [Parbendazole], the neuronal differentiation score in the test with ReNCell VM [1] (library: Prestwick) is inactive: 0. Besides, the “dopaminergic neuron differentiation score” value with ReNCell VM [2] (library: Prestwick) was inactive: 0.
